Source: PMC7066533
These are yes or no findings as the source states them, for the method shown. In cells and extracts the contact can be indirect. Some entries that bind do so weakly or less than the wild type.

Sequences of proteins named here, by UniProt entry; tags and fusion partners are left off.
UniProt P41145: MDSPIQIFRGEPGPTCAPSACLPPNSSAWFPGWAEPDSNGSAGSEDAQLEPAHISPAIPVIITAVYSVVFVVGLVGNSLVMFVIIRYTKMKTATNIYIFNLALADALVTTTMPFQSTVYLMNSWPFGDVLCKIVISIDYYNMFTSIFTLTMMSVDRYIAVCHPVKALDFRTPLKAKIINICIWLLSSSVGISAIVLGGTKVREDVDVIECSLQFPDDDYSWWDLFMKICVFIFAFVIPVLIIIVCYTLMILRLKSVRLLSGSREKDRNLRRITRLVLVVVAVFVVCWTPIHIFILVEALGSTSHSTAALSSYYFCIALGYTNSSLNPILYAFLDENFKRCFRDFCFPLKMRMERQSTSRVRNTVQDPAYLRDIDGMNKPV
UniProt P32121: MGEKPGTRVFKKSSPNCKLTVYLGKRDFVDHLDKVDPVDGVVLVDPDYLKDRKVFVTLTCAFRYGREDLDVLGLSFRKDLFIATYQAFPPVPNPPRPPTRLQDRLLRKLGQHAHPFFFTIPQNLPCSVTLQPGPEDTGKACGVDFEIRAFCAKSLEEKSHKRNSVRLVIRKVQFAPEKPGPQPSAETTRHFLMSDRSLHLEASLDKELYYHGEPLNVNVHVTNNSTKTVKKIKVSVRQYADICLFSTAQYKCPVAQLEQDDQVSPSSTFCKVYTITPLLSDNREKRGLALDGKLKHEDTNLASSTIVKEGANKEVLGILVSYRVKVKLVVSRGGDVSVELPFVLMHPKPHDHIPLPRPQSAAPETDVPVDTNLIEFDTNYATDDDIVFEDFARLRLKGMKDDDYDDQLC

Key:
[1] = biological target: hKOPr of the PathHunter U2OS cells (human) (UniProt P41145); test: split reporter; DiscoveRx PathHunter eXpress β-arrestin2 enzyme complementation in U2OS cells; cells exposed to LOR17 (0–10 μM), 3 h at 37°C, chemiluminescence
[2] = biological target: hKOPr of the PathHunter U2OS cells (human) (UniProt P41145); test: split reporter; DiscoveRx PathHunter eXpress β-arrestin2 enzyme complementation in U2OS cells; cells exposed to U50,488 (0–10 μM), 3 h at 37°C, chemiluminescence
[3] = biological target: RLuc-tagged human KOPr (human) (UniProt P41145); test: condition: only cells exposed to 1 and 10 μM LOR17 instead of U50,488; FRET or BRET; HEK-293 cells co-transfected with KOPr-RLuc (250 ng) and increasing mYFP-β-arrestin 2 (0–12 μg); cells exposed to LOR17 (1–10 μM), read 5–60 min; net BRET against vehicle
[4] = biological target: RLuc-tagged human KOPr (human) (UniProt P41145); test: FRET or BRET; HEK-293 cells co-transfected with KOPr-RLuc (250 ng) and increasing mYFP-β-arrestin 2 (0–12 μg); cells exposed to U50,488 (1–10 μM), read 5–60 min; net BRET against vehicle

binding [1]	binding [2]	binding [3]	binding [4]	Substance
binds weakly	binds	–	–	enzyme acceptor-tagged β-arrestin2 fusion protein (from UniProt P32121 1-409)
–	–	no binding	binds	mYFP-β-arrestin 2 (from UniProt P32121 1-409)
